Source: PubChem BioAssay AID2685 (National Center for Advancing Translational Sciences (NCATS), 2010)
This is one part of the list. These are further read-outs of the screen, such as a control signal, another cell line or another target. No call is given for them. The list favours compounds with an active or inconclusive main result. Words in brackets tell the shape of the fitted curve; partial curves, single points and poor fits give uncertain potencies.

Experiment: qHTS Assay for Lipid Storage Modulators in Drosophila S3 Cells;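 on cell number change: cells counted by Cell Tracker Red CMTPX staining in the red channel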
Details: BODIPY lipid droplet fluorescence, 18-24 h; for cell number change: measured here: cell count max response, cells fed with added oleic acid
Procedure, shortened: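 Drosophila S3 cells loaded with oleic acid (400 uM, as added) and compounds at several concentrations; lipid droplets imaged by 488-nm laser-scanning cytometry, 500–530 nm intensity and object ratio to cell channel. Percent activity normalized to 20 uM Triacsin C.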

[1] = measured here: cell number channel AC50, cells fed with added oleic acid
[2] = measured here: lipid fluorescence (Fed channel) AC50, cells fed with added oleic acid

Compound	cell number change	AC50 [1]	AC50 [2]
CCC(CC)C(=O)NCCc1cc2cc(C)c(C)cc2[nH]c1=O	29.9%		
Cc1cc2oc(=O)cc(COC(=O)c3n[nH]c4ccccc34)c2cc1C	32.1%	9.2 µM [rising, partial curve]	
CCc1ccc(C2=NNC(=Nc3c(C)n(C)n(-c4ccccc4)c3=O)SC2)cc1	-19.8%		0.00411 µM [falling, full curve, poor fit]
O=C(NCc1cccnc1)Nc1ccc(Br)cc1Cl	29.7%		29.1 µM [rising, single point]
O=C(NCCN1CCc2ccccc2C1)C1CCN(S(=O)(=O)N2CCCCC2)CC1	14.6%		29.1 µM [rising, single point]
CCC(Sc1nc2c(c(=O)[nH]1)CCC2)C(=O)Nc1cccc(OC)c1 (centres undefined)	63.3%		29.1 µM [rising, single point]
COCCOC(=O)C(C#N)c1nc2ccccc2nc1N1CCCC1 (centres undefined)	48.8%	10.3 µM [rising, partial curve]	
COc1ccc(N2CCN(S(=O)(=O)c3cc(-c4cc(C)no4)ccc3C(C)C)CC2)cc1	0.298%		16.4 µM [rising, single point]
CCOc1cc(/C=N/NC(=O)CN2CCOCC2)ccc1OCc1ccc(Cl)cc1		0.184 µM [rising, full curve, poor fit]	
O=S(=O)(CS(=O)(=O)c1ccc(Cl)cc1)c1ccc(Cl)cc1	50.1%	29.1 µM [rising, single point]	
CC(=O)c1cccc(NC(=O)/C(=C\c2ccco2)NC(=O)c2cccs2)c1	20.7%	0.103 µM [rising, full curve, poor fit]	23.1 µM [rising, single point]
COc1ccc(NC(=O)Cn2c(=O)n(CC(=O)NCc3ccco3)c(=O)c3ccccc32)cc1	1.44%		
COCCn1c(SCC(=O)c2ccccc2)nc2c(c1=O)SC(C)C2 (centres undefined)	71%	1.84 µM [rising, full curve]	5.17 µM [rising, single point]
COc1ccc(NC(=O)CCNC(=O)Cn2ccc3ccccc3c2=O)cc1Cl	8.11%		29.1 µM [falling, single point]
Nn1c(SC/C=C/c2ccccc2)nnc1-c1ccco1	-14.2%		16.4 µM [rising, partial curve]
CC1(C)CC2CC(C)(CN2C(=O)COC(=O)c2ccccc2C(F)(F)F)C1 (centres undefined)	-14%		4.11 µM [rising, single point]
COc1ccc(C2NCCc3sccc32)cc1 (centres undefined)			32.6 µM [rising, single point]
COc1ccc(NC2=CC(=O)CC(C)(C)C2)cc1OC	10.6%		
CC(C)NCCOc1cccc(Br)c1	-91.8%	32.6 µM [falling, partial curve]	6.51 µM [falling, single point]
CCOc1ccc(Cl)cc1CNc1nnnn1CC	14.1%		

Compound	cell number change	AC50 [1]	AC50 [2]
C=CCC(NCCCO)c1cccc(OC)c1OC (centres undefined)	-30%		29.1 µM [falling, single point]
CCN(CC)CCNC(=O)CCCCn1c(=S)[nH]c2c([nH]c3ccc(OC)cc32)c1=O	-24.2%		0.231 µM [falling, full curve]
Cc1ccc2cc(CN(C(=O)C3CCCO3)C3CCCCC3)c(=O)[nH]c2c1 (centres undefined)	-7.9%		20.6 µM [rising, single point]
CCOc1ccc(C(=O)Nc2cccc(-c3cc4ccccc4oc3=O)c2)cc1[N+](=O)[O-]	4.52%		8.2 µM [falling, partial curve]
CC(C)OC(=O)C1C(=O)CC(C)(O)C(C(=O)OC(C)C)C1c1ccc(F)cc1 (centres undefined)	-36.2%	18.4 µM [falling, partial curve]	23.1 µM [falling, partial curve]
CCOP(=O)(c1ccc(N(C)C)cc1)C(O)c1c(Cl)cccc1Cl (centres undefined)	-79.9%		20.6 µM [falling, single point]
CCn1c2ccccc2c2nc3cc(S(=O)(=O)N4CCOCC4)ccc3nc21	-10.2%		16.4 µM [falling, partial curve, poor fit]
COc1cc2c(cc1OC)[C@@H](Cc1ccc(OCCC#N)cc1)N(C)CC2	19.1%		
CCc1cccc2c(C(=S)N3CCCC3)c[nH]c12	-26.2%		29.1 µM [falling, single point]
COc1ccc(NC(=O)CN2CCN(CC(=O)Nc3ccccc3OC)CC2)c(OC)c1	8.33%		
COCCn1c(N)c(C(=O)Nc2sc3c(c2C(=O)OC)CCCC3)c2nc3ccccc3nc21	145%	0.291 µM [rising, partial curve, poor fit]	0.58 µM [rising, single point]
O=C(COc1ccc(Cl)cc1)N/N=C/CCc1ccccc1	-29.3%		1.84 µM [falling, single point]
O=C(Nc1ncccc1O)c1cccc(S(=O)(=O)N2CCc3ccccc32)c1	30.5%	29.1 µM [rising, single point]	
Cc1cc2c(C)ccc(C)c2nc1SCC(=O)c1cccs1	28.6%	0.164 µM [rising, full curve, poor fit]	0.146 µM [rising, full curve, poor fit]
CCN(Cc1ccccc1)C(=O)COC(=O)Cc1c[nH]c2ccccc12		2.06 µM [falling, partial curve]	1.64 µM [falling, full curve]
C/C(=N\NC(=O)C12CCC(C)(C(=O)O1)C2(C)C)c1ccccc1O (centres undefined)	-13.6%	0.116 µM [falling, full curve, poor fit]	
COc1ccc2oc(C(=O)OCC(=O)NC(=O)c3ccccc3)c(C)c2c1	32.8%	0.00517 µM [rising, full curve, poor fit]	11.6 µM [rising, partial curve, poor fit]
O=C(N/N=C/c1cccs1)c1cncc(Br)c1	23.4%		9.2 µM [rising, partial curve]
N#Cc1ccsc1NC(=O)COC(=O)c1ccc2ccccc2c1	15.5%		2.31 µM [rising, partial curve]
O=c1ccc(-c2ccc(S(=O)(=O)N3CCCCC3)o2)n[nH]1	-33.4%	10.3 µM [falling, partial curve]	13 µM [falling, partial curve, poor fit]

Compound	cell number change	AC50 [1]	AC50 [2]
c1ccc(-n2ncc3c2ncn2c(C4CCCCC4)nnc32)cc1	-30.4%	6.51 µM [falling, full curve, poor fit]	29.1 µM [falling, single point]
COc1ccc(S(=O)(=O)N2CCCC(C(=O)NCCc3ccccc3)C2)cc1 (centres undefined)	2.99%		
Cc1ccc2nc(-c3ccc(NC(=O)Cc4cccs4)cc3)[nH]c2c1	-50.3%	18.4 µM [falling, partial curve, poor fit]	16.4 µM [falling, partial curve]
CC(C)N1CC(C(=O)Nc2ccc(Br)c(Cl)c2)CC1=O (centres undefined)	1.35%		6.51 µM [rising, single point]
CC(C)(C)C(=O)Nc1c2c(nn1-c1ccc(F)cc1)CSC2	-1.98%		29.1 µM [rising, single point]
O=C(Cc1ccccc1[N+](=O)[O-])N1CCOCC1	23.5%	0.651 µM [rising, full curve, poor fit]	
CC1(C)CC(=O)C(C(c2ccc(Br)cc2)C2C(=O)CC(C)(C)CC2=O)C(=O)C1	3.04%		
S=c1[nH]nc(-c2cccs2)n1/N=C/c1cccs1	-4.9%	0.00517 µM [falling, full curve, poor fit]	
Cn1c(=O)[nH]c(=O)c2c1nc(N/N=C/C(Br)=C/c1ccccc1)n2CCO	18.6%		
CCOc1ccccc1C1C(C#N)=C(N)Nc2onc(-c3ccccc3)c21 (centres undefined)	-23.3%	0.731 µM [falling, full curve, poor fit]	0.231 µM [falling, full curve]
O=C(OCC(=O)N1CCc2ccccc2C1)c1cccs1		2.06 µM [falling, single point]	
Cc1ccc(NC(=O)COc2ccccc2C(=O)Nc2ccccc2)cc1Cl	-10.4%		1.16 µM [rising, full curve, poor fit]
CC(=O)N1CCc2cc(Br)cc(S(=O)(=O)N3CCC(C(=O)O)CC3)c21	-5.65%		0.13 µM [falling, full curve]
O=C(Nc1cc(Cl)cc(Cl)c1)C1C2C=CC3(O2)C1C(=O)N(CCCN1CCOCC1)C3C(=O)NC1CCCCC1 (centres undefined)	22.2%	2.59 µM [rising, partial curve, poor fit]	6.51 µM [rising, partial curve]
Cc1ccnc(SCCn2c(Br)nc3c2c(=O)[nH]c(=O)n3C)n1	2.56%		3.26 µM [rising, partial curve]
COc1cccc(NC(=O)CSc2nc(C)cs2)c1	20.5%		6.51 µM [falling, single point]
Cc1cc(C)nc(Nc2nc3ccccc3s2)n1		2.91 µM [rising, single point]	6.51 µM [rising, partial curve, poor fit]
CCOc1ccccc1NS(=O)(=O)c1cn(C)nc1C	-38%		3.16 µM [rising, single point]
O=C(O)c1ccc(CS(=O)(=O)c2cccc(C(F)(F)F)c2)o1	-40.8%	0.58 µM [falling, full curve]	0.146 µM [falling, full curve]

As a short view, four of the compounds above.
Compound	cell number change	AC50 [1]	AC50 [2]
COc1cccc(NC(=O)CSc2nc(C)cs2)c1	20.5%		6.51 µM [falling, single point]
Cc1cc(C)nc(Nc2nc3ccccc3s2)n1		2.91 µM [rising, single point]	6.51 µM [rising, partial curve, poor fit]
CCOc1ccccc1NS(=O)(=O)c1cn(C)nc1C	-38%		3.16 µM [rising, single point]
O=C(O)c1ccc(CS(=O)(=O)c2cccc(C(F)(F)F)c2)o1	-40.8%	0.58 µM [falling, full curve]	0.146 µM [falling, full curve]
